Test results reported in US9180163B2, “Parstatin peptides” (priority 2009, dated 2015).
Several values for one entry are separate records, joined by “and”; a condition that tells them apart may be missing. Identical values can stand only once. Like-named read-outs stand apart in the source and are kept apart here. Not every detail of the peptide structures is certain; ends, links or a residue may be inferred. Ends that are not written are not given here.

What was measured:
HUVEC cells [1] = assay: modified Boyden's chamber cell migration assay; type: cell-based, human; details: toward 5% FBS, 6 h; other peptides 10 μM
Experimental: HUVEC cell migration was assessed using a modified Boyden's chamber assay, i.e., in Transwell cell culture chambers (Corning Life Sciences, Acton, Mass.). Briefly, polycarbonate filters with 8 μm pores were used to separate the upper and the lower chambers. Cells were added to the upper compartment at a density of 10,000 cells/100 μl in serum-free medium containing 0.5% BSA and incubated for 6 h. Directional migration (chemotaxis) in the lower chamber was induced by addition of medium containing 5% FBS to the lower chamber. Where indicated parstatin or other peptides were added to lower chamber.
Cells on the filters were fixed and stained. The non-migrated cells (cells in upper surface) were removed by wiping with cotton swabs. The cells on the lower surface were counted manually under microscope in six predetermined fields. Parstatin (1-41) attenuated chemotactic cell migration through microporous membrane in response to serum (FIG. 3C). When human parstatin was combined with 5% FBS, the number of migrated cells was reduced in concentration-dependent manner.

HUVEC cells [2] = assay: [3H]-thymidine incorporation (DNA synthesis); type: cell-based, human; details: for inhibition of DNA synthesis: 5% FBS
Experimental: The ability of parstatin (1-41) to inhibit DNA synthesis of endothelial cells was assessed in thymidine incorporation assays. HUVEC cells were grown until 60-80% confluent in 24-well plates. Cells were treated with indicated peptides in serum-free medium containing either 0.5% BSA, or VEGF, or bFGF, or medium containing 5% FBS, or epidermal growth factor (EGF), or heparin-binging EGF (HB-EGF) for 18 hours. All cells were pulsed with 0.5 μCi/ml [3H]-thymidine (ICN Biomedicals Inc., Irvine Calif.) for additional 6 h. Radioactivity incorporated into DNA was determined in liquid scintillation counter.

HUVEC cells [3] = assay: Annexin V/propidium iodide apoptosis assay; type: cell-based, human; details: 24 h
caspase-3 in HUVEC cells = assay: caspase-3 activity colorimetric assay; type: cell-based, human
Experimental: To further support the involvement of caspases in parstatin (1-41) pro-apoptotic effect, its effect on caspase-3 activation was examined using a commercially available kit (Promega, Madison, Wis.). The colorimetric substrate, Ac-DEVD-p-nitroanilide, is cleaved by caspase-3 to release yellow p-nitroanilide, was measured by absorbance at 405 nm to detect caspase activation.
HUVEC cells were grown in 60 mm tissue culture plates until approximately 80% confluency. Cells were treated in absence or in presence of 0.5% BSA or bFGF for 24 h in serum-free medium. Suspended and adherent cells were collected and lysed. Caspase-3 activity was measured by absorbance at 405 nm.

[4] = system: corneal neovascularization in Sprague-Dawley rats; assay: chemical burn-induced corneal neovascularization, image analysis; type: in vivo, rat
From the text: Parstatin (1-41), hydrophobic parstatin (1-26) fragment and hydrophilic parstatin (24-41) fragment were used in an in vivo rat model of corneal neovascularization. In particular, chemical burn-induced corneal trauma was used to generate corneal neovascularization as a preclinical disease model simulating a plethora of corneal diseases associated with abnormal formation of new blood vessels. The cornea is normally an avascular tissue that can be stimulated to undergo pathological neoangiogenesis in response to mechanical or chemical injuries, pterygium, herpetic keratitis, etc. In this model, an inflammatory response is considered an important prerequisite for neovascularization. This model is widely accepted and is one of the most extensively studied models, which provides an in vivo environment to study this complex process with convenient access to the corneal tissue and the highly visible developing vasculature.
Pathogen-free male Sprague-Dawley rats (250-300 gr) were treated in accordance with the Association for Research in Vision and Ophthalmology Statement for the Use of Animals in Ophthalmic and Vision Research and the guidelines of the Animal Care and Use Committee at local University Medical School. […] The corneal neovascularization was assessed using a semiautomatic program, which was developed in MATLAB 7.5. […]

[5] = system: contrast-induced acute renal injury in New-Zealand White rabbits; assay: rabbit contrast-induced nephropathy model; type: in vivo
p38 MAPK, Erk1/2 = assay: immunoblot of phosphorylated p38 MAPK and Erk1/2 in isolated rat hearts; details: 1 μM, vs control hearts
[6] = system: myocardial ischemia-reperfusion injury in Sprague Dawley rats; details: for reduction in infarct size: 10 μg/Kg IV
[7] = 48 hours after Iopromide 10 g I/Kg, peptide IV 10 min prior

MGPRRLLLVAACFSLCGPLLSARTRARRPESKATNATLDPR (cysteines drawn unpaired) [parstatin (1-41)]
chemotactic cell migration (HUVEC cells [1]): attenuated
EGF or HB-EGF-induced DNA synthesis (HUVEC cells [2]; 10 μM): did not have any effect
inhibition of DNA synthesis (HUVEC cells [2]; 10 μM, fast-growing cells): 47.3±6.1%
inhibition of DNA synthesis (HUVEC cells [2]; 10 μM, quiescent cells (100% confluent)): 21.6%±7.4
inhibition of VEGF-induced DNA synthesis, of the maximum (exposure for 24 h) (HUVEC cells [2]; 30 min exposure): 70%
DNA synthesis in HUVEC cells (HUVEC cells [2]; serum, bFGF or VEGF, comparison peptides 10 μM): reduced DNA synthesis
percentage of healthy/viable cells (HUVEC cells [3]; 10 μM): equally decreased
percentages of endothelial cells in early and late apoptotic stages (HUVEC cells [3]; 10 μM, BSA, VEGF or bFGF): increased
apoptotic effect in combination with caspase inhibitor Z-VAD-FMK (HUVEC cells [3]; Z-VAD-FMK 100 μM): reversed
caspase-3 activity (caspase-3 in HUVEC cells; 0.5% BSA, 24 h, mouse and scrambled 10 μM): increased
caspase-3 activity in combination with Z-VAD-FMK (caspase-3 in HUVEC cells; Z-VAD-FMK 100 μM): blockage
earliest time at which promotion of caspase-3 activity was observed (caspase-3 in HUVEC cells; after exposure of cells): 3 h
caspase-3 activity in combination with bFGF (caspase-3 in HUVEC cells; bFGF 5 ng/ml, 24 h): increased dramatically
decrease of total corneal neovascularization area ([4]; 2×100 μg subconjunctival, day 7): 59%
corneal neovascularization area vs control group ([4]; 2×50 and 2×200 μg subconjunctival): No significant differences
blood urea [5, 7]: 54 ± 52 mg/dL
serum creatinine [5, 7]: 1.6 ± 1.6 mg/dL
proportion of rabbits with contrast-induced nephropathy ([5]; serum creatinine threshold 1.5 mg/dl, 48 hours): 18.2%
phosphorylated levels of p38 MAPK (p38 MAPK, Erk1/2; 5 min reperfusion): No difference
phosphorylation of Erk1/2 (p38 MAPK, Erk1/2; at reperfusion): greatly enhanced
reduction in infarct size compared with control ([6]; 10 μg/Kg IV 15 min prior to ischemia): 26% and 31%
infarct size ([6]; 10 μg/Kg IV 15 min prior to ischemia, 30 min ischemia, 120 min reperfusion): 46±3 % of the area at risk and 39±2 % of the area at risk
reduction in infarct size ([6]; 10 second after the onset of reperfusion): 18%
reduction in infarct size ([6]; 15 min after ischemia onset): 23%
change in infarct size ([6]; 1, 3, or 25 μg/Kg doses, 15 min prior to ischemia): No significant change
